9 molecules from patent publication US20180320217A1, “METHODS FOR SAMPLING AND MEASURING ORAL LAVAGE PROTEINS” (The Procter & Gamble Company, priority 2017, published 2018) can be followed below.

The labels stand for the following.
B1: 72 kDa type IV collagenase (protein, UniProt P08253 110-660, looked up)
72 kDa type IV collagenase: YNFFPRKPKWDKNQITYRIIGYTPDLDPETVDDAFARAFQVWSDVTPLRFSRIHDGEADIMINFGRWEHGDGYPFDGKDGLLAHAFAPGTGVGGDSHFDDDELWTLGEGQVVRVKYGNADGEYCKFPFLFNGKEYNSCTDTGRSDGFLWCSTTYNFEKDGKYGFCPHEALFTMGGNAEGQPCKFPFRFQGTSYDSCTTEGRTDGYRWCGTTEDYDRDKKYGFCPETAMSTVGGNSEGAPCVFPFTFLGNKYESCTSAGRSDGKMWCATTANYDDDRKWGFCPDQGYSLFLVAAHEFGHAMGLEHSQDPGALMAPIYTYTKNFRLSQDDIKGIQELYGASPDIDLGTGPTPTLGPVTPEICKQDIVFDGIAQIRGEIFFFKDRFIWRTVTPRDKPMGPLLVATFWPELPEKIDAVYEAPQEEKAVFFAGNEYWIYSASTLERGYPKPLTSLGLPPDVQRVDAAFNWSKNKKTYIFAGDKFWRYNEVKKKMDPGFPKLIADAWNAIPDNLDAVVDLQGGGHSYFFKGAYYLKLENQSLKSVKFGSIKSDWLGC
B2: Interleukin-6 receptor subunit beta (protein, UniProt P40189 23-918, looked up)
Interleukin-6 receptor …: ELLDPCGYISPESPVVQLHSNFTAVCVLKEKCMDYFHVNANYIVWKTNHFTIPKEQYTIINRTASSVTFTDIASLNIQLTCNILTFGQLEQNVYGITIISGLPPEKPKNLSCIVNEGKKMRCEWDGGRETHLETNFTLKSEWATHKFADCKAKRDTPTSCTVDYSTVYFVNIEVWVEAENALGKVTSDHINFDPVYKVKPNPPHNLSVINSEELSSILKLTWTNPSIKSVIILKYNIQYRTKDASTWSQIPPEDTASTRSSFTVQDLKPFTEYVFRIRCMKEDGKGYWSDWSEEASGITYEDRPSKAPSFWYKIDPSHTQGYRTVQLVWKTLPPFEANGKILDYEVTLTRWKSHLQNYTVNATKLTVNLTNDRYLATLTVRNLVGKSDAAVLTIPACDFQATHPVMDLKAFPKDNMLWVEWTTPRESVKKYILEWCVLSDKAPCITDWQQEDGTVHRTYLRGNLAESKCYLITVTPVYADGPGSPESIKAYLKQAPPSKGPTVRTKKVGKNEAVLEWDQLPVDVQNGFIRNYTIFYRTIIGNETAVNVDSSHTEYTLSSLTSDTLYMVRMAAYTDEGGKDGPEFTFTTPKFAQGEIEAIVVPVCLAFLLTTLLGVLFCFNKRDLIKKHIWPNVPDPSKSHIAQWSPHTPPRHNFNSKDQMYSDGNFTDVSVVEIEANDKKPFPEDLKSLDLFKKEKINTEGHSSGIGGSSCMSSSRPSISSSDENESSQNTSSTVQYSTVVHSGYRHQVPSVQVFSRSESTQPLLDSEERPEDLQLVDHVDGGDGILPRQQYFKQNCSQHESSPDISHFERSKQVSSVNEEDFVRLKQQISDHISQSCGSGQMKMFQEVSAADAFGPGTEGQVERFETVGMEAATDEGMPKSYLPQTVRQGGYMPQ
B3: Interleukin-1 receptor-like 2 (protein, UniProt Q9HB29 20-575, looked up)
Interleukin-1 receptor-like 2: DGCKDIFMKNEILSASQPFAFNCTFPPITSGEVSVTWYKNSSKIPVSKIIQSRIHQDETWILFLPMEWGDSGVYQCVIKGRDSCHRIHVNLTVFEKHWCDTSIGGLPNLSDEYKQILHLGKDDSLTCHLHFPKSCVLGPIKWYKDCNEIKGERFTVLETRLLVSNVSAEDRGNYACQAILTHSGKQYEVLNGITVSITERAGYGGSVPKIIYPKNHSIEVQLGTTLIVDCNVTDTKDNTNLRCWRVNNTLVDDYYDESKRIREGVETHVSFREHNLYTVNITFLEVKMEDYGLPFMCHAGVSTAYIILQLPAPDFRAYLIGGLIALVAVAVSVVYIYNIFKIDIVLWYRSAFHSTETIVDGKLYDAYVLYPKPHKESQRHAVDALVLNILPEVLERQCGYKLFIFGRDEFPGQAVANVIDENVKLCRRLIVIVVPESLGFGLLKNLSEEQIAVYSALIQDGMKVILIELEKIEDYTVMPESIQYIKQKHGAIRWHGDFTEQSQCMKTKFWKTVRYHMPPRRCRPFPPVQLLQHTPCYRTAGPELGSRRKKCTLTTG
B4: Inhibitor of growth protein 1 (protein, UniProt Q9UK53 1-422, looked up)
Inhibitor of growth protein 1: MSFVECPYHSPAERLVAEADEGGPSAITGMGLCFRCLLFSFSGRSGVEGGRVDLNVFGSLGLQPWIGSSRCWGGPCSSALRCGWFSSWPPPSKSAIPIGGGSRGAGRVSRWPPPHWLEAWRVSPLPLSPLSPATFGRGFIAVAVIPGLWARGRGCSSDRLPRPAGPARRQFQAASLLTRGWGRAWPWKQILKELDECYERFSRETDGAQKRRMLHCVQRALIRSQELGDEKIQIVSQMVELVENRTRQVDSHVELFEAQQELGDTAGNSGKAGADRPKGEAAAQADKPNSKRSRRQRNNENRENASSNHDHDDGASGTPKEKKAKTSKKKKRSKAKAEREASPADLPIDPNEPTYCLCNQVSYGEMIGCDNDECPIEWFHFSCVGLNHKPKGKWYCPKCRGENEKTMDKALEKSKKERAYNR
B5: Inorganic pyrophosphatase (protein, UniProt Q15181 2-289, looked up)
Inorganic pyrophosphatase: SGFSTEERAAPFSLEYRVFLKNEKGQYISPFHDIPIYADKDVFHMVVEVPRWSNAKMEIATKDPLNPIKQDVKKGKLRYVANLFPYKGYIWNYGAIPQTWEDPGHNDKHTGCCGDNDPIDVCEIGSKVCARGEIIGVKVLGILAMIDEGETDWKVIAINVDDPDAANYNDINDVKRLKPGYLEATVDWFRRYKVPDGKPENEFAFNAEFKDKDFAIDIIKSTHDHWKALVTKKTNGKGISCMNTTLSESPFKCDPDAARAIVDALPPPCESACTVPTDVDKWFHHQKN
B6: Interferon regulatory factor 1 (protein, UniProt P10914 1-325, looked up)
Interferon regulatory factor 1: MPITRMRMRPWLEMQINSNQIPGLIWINKEEMIFQIPWKHAAKHGWDINKDACLFRSWAIHTGRYKAGEKEPDPKTWKANFRCAMNSLPDIEEVKDQSRNKGSSAVRVYRMLPPLTKNQRKERKSKSSRDAKSKAKRKSCGDSSPDTFSDGLSSSTLPDDHSSYTVPGYMQDLEVEQALTPALSPCAVSSTLPDWHIPVEVVPDSTSDLYNFQVSPMPSTSEATTDEDEEGKLPEDIMKLLEQSEWQPTNVDGKGYLLNEPGVQPTSVYGDFSCKEEPEIDSPGGDIGLSLQRVFTDLKNMDATWLDSLLTPVRLPSIQAIPCAP
B7: Intercellular adhesion molecule 2 (protein, UniProt P13598 25-275, looked up)
Intercellular adhesion …: KVFEVHVRPKKLAVEPKGSLEVNCSTTCNQPEVGGLETSLDKILLDEQAQWKHYLVSNISHDTVLQCHFTCSGKQESMNSNVSVYQPPRQVILTLQPTLVAVGKSFTIECRVPTVEPLDSLTLFLFRGNETLHYETFGKAAPAPQEATATFNSTADREDGHRNFSCLAVLDLMSRGGNIFHKHSAPKMLEIYEPVSDSQMVIIVTVVSVLLSLFVTSVLLCFIFGQHLRQQRMGTYGVRAAWRRLPQAFRP
B8: Interleukin-3 receptor subunit alpha (protein, UniProt P26951 19-378, looked up)
Interleukin-3 receptor …: TKEDPNPPITNLRMKAKAQQLTWDLNRNVTDIECVKDADYSMPAVNNSYCQFGAISLCEVTNYTVRVANPPFSTWILFPENSGKPWAGAENLTCWIHDVDFLSCSWAVGPGAPADVQYDLYLNVANRRQQYECLHYKTDAQGTRIGCRFDDISRLSSGSQSSHILVRGRSAAFGIPCTDKFVVFSQIEILTPPNMTAKCNKTHSFMHWKMRSHFNRKFRYELQIQKRMQPVITEQVRDRTSFQLLNPGTYTVQIRARERVYEFLSAWSTPQRFECDQEEGANTRAWRTSLLIALGTLLALVCVFVICRRYLVMQRLFPRIPHMKDPIGDSFQNDKLVVWEAGKAGLEECLVTEVQVVQKT
B9: Insulin-like growth factor-binding protein 6 (protein, UniProt P24592 28-240, looked up)
Insulin-like growth …: RCPGCGQGVQAGCPGGCVEEEDGGSPAEGCAEAEGCLRREGQECGVYTPNCAPGLQCHPPKDDEAPLRALLLGRGRCLPARAPAVAEENPKESKPQAGTARPQDVNRRDQQRNPGTSTTPSQPNSAGVQDTEMGPCRRHLDSVLQQLQTEVYRGAQTLYVPNCDHRGFYRKRQCRSSQGQRRGPCWCVDRMGKSLPGSPDGNGSSSCPTGSSG

The first data set deals with proteins in oral lavage. Briefly: Abundance of proteins in human oral lavage (SomaLogic), TABLE 1. The settings on record: abundance in oral lavage; high bleeders (gingivitis), baseline. It counts as in vivo.
Regarding B1, the “Means (Original Scale) High bleeder BL” value is listed as 4284.

For the molecule B2, the “Means (Original Scale) High bleeder BL” value came out at 63627.

With B3, the “Means (Original Scale) High bleeder BL” value is 1304.

For B4, the “Means (Original Scale) High bleeder BL” value is on record as 1046.

In the case of B5, the “Means (Original Scale) High bleeder BL” value is reported as 4082.

For the molecule B6, the “Means (Original Scale) High bleeder BL” value is reported as 2361.

B7: the “Means (Original Scale) High bleeder BL” value is listed as 4810.

As to B8, the “Means (Original Scale) High bleeder BL” value was found to be 190.

On to B9, for which the “Means (Original Scale) High bleeder BL” value was 2178.

Still in this data set, the particulars now being: abundance in oral lavage; high bleeders, week 4 of investigative products.
On to B1, for which the “Means (Original Scale) High bleeder W4” value is 2573.

On to B2, for which the “Means (Original Scale) High bleeder W4” value is given as 40305.

For the molecule B3, the “Means (Original Scale) High bleeder W4” value is 898.

Turning to B4, the “Means (Original Scale) High bleeder W4” value was determined as 592.

As for B5, the “Means (Original Scale) High bleeder W4” value is 1645.

For the molecule B6, the “Means (Original Scale) High bleeder W4” value was 954.

As for B7, the “Means (Original Scale) High bleeder W4” value came to 1913.

As for B8, the “Means (Original Scale) High bleeder W4” value turned out to be 120.

With B9, the “Means (Original Scale) High bleeder W4” value worked out at 1237.

The data set is the same for the next values; noted with them: abundance in oral lavage; low bleeders (healthy), baseline.
With B1, the “Means (Original Scale) Low bleeder BL” value is on record as 1249.

For B2, the “Means (Original Scale) Low bleeder BL” value amounted to 21961.

B3: the “Means (Original Scale) Low bleeder BL” value came out at 506.

Consider B4, for which the “Means (Original Scale) Low bleeder BL” value is 369.

B5: the “Means (Original Scale) Low bleeder BL” value is reported as 1342.

Regarding B6, the “Means (Original Scale) Low bleeder BL” value amounted to 165.

Consider B7, for which the “Means (Original Scale) Low bleeder BL” value is listed as 507.

Turning to B8, the “Means (Original Scale) Low bleeder BL” value amounted to 89.

For B9, the “Means (Original Scale) Low bleeder BL” value is listed as 761.

Still in this data set, the particulars now being: oral lavage; high bleeders vs low bleeders at baseline.
Take B1: the “Fold Change High bleeder BL vs Low bleeder BL” value (“Fold Change High bleeder BL” below) is recorded as 3.20.

In the case of B2, the “Fold Change High bleeder BL” value was found to be 2.76.

Regarding B3, the “Fold Change High bleeder BL” value is 2.67.

B4: the “Fold Change High bleeder BL” value is reported as 2.67.

Turning to B5, the “Fold Change High bleeder BL” value was 3.73.

With B6, the “Fold Change High bleeder BL” value was determined as 7.66.

Turning to B7, the “Fold Change High bleeder BL” value is on record as 6.58.

Consider B8, for which the “Fold Change High bleeder BL” value is 2.03.

For B9, the “Fold Change High bleeder BL” value is reported as 2.37.

The data set is the same for the next values; noted with them: oral lavage; week 4 of investigative products vs baseline, high bleeders.
On to B1, for which the “Fold Change High bleeder W4 vs High bleeder BL” value (“Fold Change High bleeder W4” for short) came out at 0.61.

In the case of B2, the “Fold Change High bleeder W4” value was determined as 0.62.

Take B3: the “Fold Change High bleeder W4” value was determined as 0.67.

For the molecule B4, the “Fold Change High bleeder W4” value was 0.58.

Turning to B5, the “Fold Change High bleeder W4” value is 0.49.

With B6, the “Fold Change High bleeder W4” value was 0.64.

With B7, the “Fold Change High bleeder W4” value is 0.55.

Consider B8, for which the “Fold Change High bleeder W4” value was 0.66.

Consider B9, for which the “Fold Change High bleeder W4” value was 0.63.
